Results are given in words; binding and its absence hold for the method and conditions named. In cells and extracts the contact can be indirect. These calls come from enrichment with a bait or labelling near it, and not all partners need be listed.
Molecular target: T1, SPESP1 overexpressed in HDFs (lentivirus encoding full-length SPESP1 cDNA) (UniProt Q6UW49)
T1 sequence: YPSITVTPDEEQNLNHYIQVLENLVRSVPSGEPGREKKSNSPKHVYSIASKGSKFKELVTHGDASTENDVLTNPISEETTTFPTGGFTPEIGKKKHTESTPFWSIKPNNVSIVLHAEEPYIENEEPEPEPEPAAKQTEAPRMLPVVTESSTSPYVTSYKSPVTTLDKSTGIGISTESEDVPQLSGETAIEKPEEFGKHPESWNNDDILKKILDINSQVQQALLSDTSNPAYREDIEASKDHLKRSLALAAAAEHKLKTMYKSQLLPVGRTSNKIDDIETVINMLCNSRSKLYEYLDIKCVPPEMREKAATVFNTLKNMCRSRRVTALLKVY
Test: affinity purification with mass spectrometry; SPESP1 overexpressed in HDFs; lysates immunoprecipitated with an anti-SPESP1 antibody; eluents analysed by LC-MS/MS

By UniProt entry, the sequences of proteins in these tests, tags left out.
UniProt P51608: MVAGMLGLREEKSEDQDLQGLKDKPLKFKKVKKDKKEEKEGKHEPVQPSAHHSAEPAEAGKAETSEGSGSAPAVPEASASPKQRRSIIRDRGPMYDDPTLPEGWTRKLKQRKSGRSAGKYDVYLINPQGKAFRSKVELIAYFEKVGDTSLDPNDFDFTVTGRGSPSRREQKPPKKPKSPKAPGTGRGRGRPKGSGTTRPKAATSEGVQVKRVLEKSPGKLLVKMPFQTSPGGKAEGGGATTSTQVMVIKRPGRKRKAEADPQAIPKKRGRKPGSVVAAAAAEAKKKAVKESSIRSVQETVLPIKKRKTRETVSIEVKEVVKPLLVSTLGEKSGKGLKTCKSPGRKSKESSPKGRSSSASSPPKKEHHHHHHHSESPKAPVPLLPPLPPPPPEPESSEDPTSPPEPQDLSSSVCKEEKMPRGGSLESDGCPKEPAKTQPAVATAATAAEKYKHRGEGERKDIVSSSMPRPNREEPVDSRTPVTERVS

binding: binds
Substance: methyl-CpG-binding protein 2 (MeCP2), endogenous (from UniProt P51608 1-486)
